Assay results published in patent US20240301071A1.
These are yes or no findings as the source states them, for the method shown. For part of these data: A result given as binding can be weak or reduced; the word gives no strength.

Assays:
[1] = target: CynoSIRPB1 (XP_005568598) (cynomolgus); experiment: ELISA, plate coated with SIRP protein
[2] = target: cynoSIRPA XPO15313153.1 (cynomolgus); experiment: ELISA, plate coated with tagged SIRPA at 1 ug/mL

B1: mouse anti-SIRPA antibody m3F9 (antibody, mouse IgG1, V domains shown)
VH: EVKLVESGGGLVKPGGSLKLSCAASGFTFSSYAMSWVRQTPEKRLEWVATISDYGGSYTYYPDSVKGRFTISRDNAKYTLYLQMSSLRSEDTALYYCARPPYDDYYGGFAYWGQGTLVTVSA
VL: DIVLTQSPASLAVSLGQRATISCRASKSVSSSGYSYMHWYQQKPGQPPKLLIYLASNLESGVPARFSGSGSGTDFTLNIHPVEEEDAATYYCQHNRELPCTFGGGTKLEIK
For B1, the binding [1] was “no binding” and the binding [2] was “binds”.

B2: anti-SIRPA antibody 9C2 (antibody, V domains shown)
VH: EFQLQQSGAELVKPGASVKISCKASGYSLTGYNMNWVKQSRGKSLEWIGNINPHYGSSTYNQNFKDKATLTVDKSSSAAYMQFNSLTSEDSAVYYCAREGYDGVFDYWGQGTTLTVSS
VL: QIVLSQSPAILSASPGEKVTMTCRASSSVSYMHWYQQKPGSSPKPWIYVTSNLASGVPTRFSGSGSGTSYSLTISRVEAEDAATYYCQQWSSNPRTFGGGTKLEIK
For B2, the binding [1] was “no binding”.
